At least one structure is not confirmed: it was looked up by name or label, or the drawing left a doubt.
Test system: U87MG cells
Assay: Human glioblastoma orthotopic xenograft, ABTL0812 with temozolomide
Type: in vivo, nude mice
Details: ABTL0812 oral 240 mg/kg 5 days/week; temozolomide oral 32 mg/Kg first 5 days
Protocol: Methods: Mice were intra-cerebrally injected with luciferase transfected U87MG cells. Animals were randomized 5 days after cell inoculation and treatments started. ABTL0812 was administered orally at 240 mg/kg 5 days/week; and temozolomide orally at 32 mg/Kg the first 5 days. Tumors were measured by quantification of bioluminescence intensity (BLI) of the region of interest.

## Cn1nnc2c(C(N)=O)ncn2c1=O [temozolomide, reference compound]
  disease-free survival: significantly increased the disease-free survival

Source: patent US20230088704A1, “A PHARMACEUTICAL COMBINATION FOR THE TREATMENT OF A CANCER” (ABILITY PHARMACEUTICALS S.L., priority 2020, published 2023)
